Results: PubChem BioAssay AID504444 (National Center for Advancing Translational Sciences (NCATS), 2011)
In all, about 360,000 compounds went through this assay and about 7,500 (2.1%) were called active. Inconclusive results, whose numbers are uncertain, are shown with a selection of clear calls. The call rests on the fitted dose curve; in most records, active means well fitted inhibition curve with a large enough effect; inconclusive means small, poorly fitted or top-dose-only effect, or effect the other way; inactive means flat fitted curve, though single readings scatter. Potencies of inconclusive entries are doubtful fits and often do not repeat.
On the % scale 0 is the no-effect control and ±100 the full control effect; potency means the concentration at half of the fitted maximal effect.

Experiment: Nrf2 qHTS screen for inhibitors; further: nearly all actives have a fitted effect of over 60% in size
Conditions: A549 ARE-Fluc reporter, luciferase luminescence, 18-24 h; activity change, negative = inhibition: at 46 µM (top of the series)
Procedure, shortened: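 In this cell-based qHTS, ARE-driven firefly luciferase in A549 cells reports Nrf2 activity; the luminescent signal after BugLite lysis is the measured value, with a prior CellTiter-Fluor read for cell health.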
With `CN1C(CCl)Nc2cc(Cl)c(S(N)(=O)=O)cc2S1(=O)=O` (configuration not stated) the Potency was inconclusive: 0.0411 µM [falling, full curve]. For `COc1ccc(C(=O)Nc2ccccc2C(=O)NC(C)C)cc1OC`, the Potency was “inactive”. For `O=C(NC1CCCCC1)c1n[nH]c2c1CC(c1ccccc1)CC2` (configuration not stated), the Potency was inconclusive: 2.91 µM [activator, single point]. In the case of `CC1CCN(C(=O)Cn2cc(SCc3ccccc3)c3ccccc32)CC1`, the Potency is reported as “inactive”. With `COc1ccc(-n2c(-c3ccc(Cl)cc3)c[n+]3c2CCc2ccccc2-3)cc1` the Potency was inconclusive: 5.8 µM [falling, partial curve]. For `CCc1ccc(C2C(=O)c3ccccc3C2=O)cc1`, the Potency was inconclusive: 2.59 µM [activator, full curve]. With `O=C(NN=Cc1ccc2c(c1)OCO2)C1CC1` the Potency was inconclusive: 6.51 µM [activator, partial curve]. With `CCC(C)Sc1ccc([C@@H]2[C@@H]3C(=O)N(C)C(=O)[C@@H]3[C@]3(C(=O)OC)CCCCN23)cc1OC` (some centres not stated) the Potency was “inactive”. In the case of `CCn1nc(NS(=O)(=O)c2cccc3nonc23)c2cc3ccc(C)cc3nc21`, the Potency is reported as “inactive”. With `COc1ccc(S(=O)(=O)N2CCCCC2)cc1NC(=O)CNc1ccccc1C(C)=O` the Potency was inconclusive: 23.1 µM [falling, single point]. For `CCC(C)NC(=O)Cn1c(=O)n(CC2CCC(C(=O)NC)CC2)c(=O)c2sccc21` (configuration not stated), the Potency was inconclusive: 23.1 µM [activator, partial curve]. In the case of `Cc1ccc(-c2n[nH]c(=S)n2Cc2ccccc2)cc1`, the Potency is reported as inconclusive: 25.9 µM [falling, single point]. For `CC1CCN(C(=O)Cn2cc(SCc3cccc(F)c3)c3ccccc32)CC1`, the Potency was “inactive”. For `CC1CCCCC12NC(=O)N(CC(=O)NCc1ccccc1Cl)C2=O` (configuration not stated), the Potency was inconclusive: 6.51 µM [falling, single point]. With `CCOC(=O)c1nc(NCc2ccccc2F)c2ccccc2n1` the Potency was inconclusive: 23.1 µM [falling, single point]. With `CCc1ccccc1NC(=O)N1CCN(c2nnc(C)c3c(C)n(-c4ccccc4)nc23)CC1` the Potency was inconclusive: 29.1 µM [falling, single point]. With `O=C(CCCn1c(SCC(=O)c2ccc(O)c(O)c2)nc2ccccc2c1=O)NCC1CCCO1` (configuration not stated) the Potency was “inactive”. In the case of `Cc1nn(Cc2ccccc2Cl)c(C)c1NC(=O)CCCn1nc([N+](=O)[O-])c(Cl)c1C`, the Potency is reported as inconclusive: 11.6 µM [falling, partial curve, poor fit]. With `COCC(C)n1c(SCc2nc3ccccc3c(=O)[nH]2)nc2ccccc2c1=O` (configuration not stated) the Potency was “inactive”. In the case of `CCc1ccc(-n2c(SCc3cc(=O)n4cc(Br)ccc4n3)nc3[nH]ncc3c2=O)cc1`, the Potency is reported as active: 16.4 µM. For `CCC(=O)N1CCN(c2cc(N3CCN(C)CC3)c(F)cc2[N+](=O)[O-])CC1`, the Potency was “inactive”. In the case of `CN1C/C(=C/c2cccnc2)C(=O)/C(=C/c2cccnc2)C1`, the Potency is reported as “inactive”. In the case of `CC(C)CCNC(=O)c1ccc(C2SCC(=O)N2Cc2ccco2)cc1` (configuration not stated), the Potency is reported as inconclusive: 0.0065 µM [falling, full curve, poor fit]. With `CCN(CC)S(=O)(=O)c1cccc(C(=O)N/N=C(\C)c2ccc(O)cc2O)c1` the Potency was active: 10.3 µM. For `O=C(/C(C=Nc1ccc(Br)cc1)=C(/O)c1ccco1)C(F)(F)F`, the Potency was inconclusive: 3.66 µM [activator, full curve]. With `Cc1cc(C(=O)Nc2ccccc2C(F)(F)F)no1` the Potency was inconclusive: 1.46 µM [activator, partial curve, poor fit]. With `S=C(NCCSCc1ccc(Cl)c(Cl)c1)Nc1ccccc1` the Potency was inconclusive: 29.1 µM [falling, single point]. In the case of `CC1CCN(c2nnc(-n3cccc3CNc3cccc(F)c3)s2)CC1`, the Potency is reported as inconclusive: 13 µM [falling, partial curve, poor fit]. In the case of `CCOc1ccc(-n2cc(C(=O)Nc3ccccc3OCC)c3cc(OC)c(OC)cc3c2=O)cc1`, the Potency is reported as inconclusive: 2.06 µM [falling, partial curve, poor fit]. In the case of `CCC(=O)Oc1oc(-c2ccccc2)nc1C=Nc1ccc(C)cc1`, the Potency is reported as “inactive”. With `Cc1cccc(Nc2ncnc3ccc(Br)cc23)c1` the Potency was inconclusive: 2.31 µM [activator, partial curve, poor fit]. In the case of `CCOc1cc(N2CCOCC2)c(OCC)cc1NC(=O)c1cccc(N(C)C)c1`, the Potency is reported as inconclusive: 13 µM [falling, partial curve, poor fit]. In the case of `CC/C(=N\NC(=S)Nc1ccc(OC)cc1)c1ccc(OC(F)F)cc1`, the Potency is reported as “inactive”. With `C#CCOCCOCCOCCNc1nc(N2CCN(C(=O)CCCCCCCCCCNC(=O)[C@@H]([C@H](C)O)n3cc(C)nn3)CC2)nc(N2CCN(C(=O)CCCCCCCCCCNC(=O)[C@@H]([C@H](C)O)n3cc(C)nn3)CC2)n1` the Potency was inconclusive: 14.6 µM [falling, partial curve, poor fit]. In the case of `Clc1nccnc1N/N=C/c1ccc(Br)cc1`, the Potency is reported as inconclusive: 14.6 µM [activator, partial curve]. For `COC(=O)c1ccsc1NC(=O)c1cccc(OC)c1`, the Potency was inconclusive: 20.6 µM [activator, single point]. In the case of `Cc1c(NC(=O)/C(C#N)=C/C2CC=CCC2)c(=O)n(-c2ccccc2)n1C` (configuration not stated), the Potency is reported as inconclusive: 3.26 µM [falling, partial curve, poor fit]. With `O=C1/C(=C\c2ccc(O)cc2)CCC1CNc1ccc(Cl)cc1` (configuration not stated) the Potency was “inactive”. With `CCOc1ccccc1C(=O)N1CCN(c2cccc(Cl)c2)CC1` the Potency was “inactive”. With `COc1ccc(S(=O)(=O)N2CCCC(C(=O)NCc3ccco3)C2)cc1OC` (configuration not stated) the Potency was inconclusive: 2.59 µM [falling, partial curve, poor fit]. In the case of `COc1ccc(Cl)cc1C(=O)NNC(=S)NC(=O)/C=C/c1ccco1`, the Potency is reported as inconclusive: 23.1 µM [falling, single point]. For `COc1ccc2cc(C3(C)NC(=O)N(CC(=O)NCC(F)(F)F)C3=O)ccc2c1` (configuration not stated), the Potency was inconclusive: 0.13 µM [falling, partial curve, poor fit]. In the case of `CCN1C(=O)[C@H]2[C@@H](c3ccc(-c4cccc(Cl)c4)cc3)N3CCCC[C@@]3(C(=O)OC)[C@H]2C1=O`, the Potency is reported as inconclusive: 29.1 µM [falling, partial curve, poor fit]. For `C=CCOC(=O)C1=C(C)OC(N)=C(C#N)C1c1ccc(OC)c(CSc2ccccn2)c1` (configuration not stated), the Potency was inconclusive: 1.46 µM [falling, single point]. For `COc1ccc(CNC(=O)CCc2cn(Cc3cc(C)ccc3C)c3ccccc23)cc1OC`, the Potency was active: 23.1 µM. With `O=c1oc(CCO)cc2ccc(Br)cc12` the Potency was inconclusive: 32.6 µM [falling, partial curve, poor fit]. For `CC[C@]12c3[nH]c4ccc(Cl)cc4c3CCN1C(=O)[C@@H](CC(=O)NCc1cccc(C(F)(F)F)c1)C[C@@H]2C(=O)N1CCN(C(=O)C2CC2)CC1`, the Potency was inconclusive: 18.4 µM [falling, single point]. In the case of `COc1cc(CCC(=O)N2CCN(S(=O)(=O)c3ccc(C)cc3)CC2)cc(OC)c1OC`, the Potency is reported as “inactive”. For `CC(C)(C)c1ccc(-c2nc3cc(NC(=O)c4cc5ccccc5o4)ccc3o2)cc1`, the activity change, negative = inhibition was inconclusive: 26% [activator]. For `Clc1ccccc1/C=C/c1ccnc2ccccc12`, the Potency was inconclusive: 29.1 µM [activator, single point]. In the case of `CCCOc1ccc(-c2nc3ccccc3c(=O)o2)cc1`, the Potency is reported as inconclusive: 2.31 µM [activator, full curve]. In the case of `CC(C)Sc1cc(Cl)nc(NC(=O)Nc2ccccc2)n1`, the Potency is reported as “inactive”. For `COc1ccc(OC)c(Nc2nc(NCc3ccco3)nc(N)c2[N+](=O)[O-])c1`, the Potency was “inactive”. In the case of `O=C(C1=NN(c2ccccc2)C2C(=O)N(c3cccc(Cl)c3)C(=O)C12)c1ccccc1` (configuration not stated), the Potency is reported as “inactive”. For `COc1ccc(CCNC(=O)c2ccc3c(c2)N(Cc2ccc(C)cc2)CCS3)cc1OC`, the Potency was inconclusive: 11.6 µM [falling, single point]. With `Clc1cccc2c1Sc1ccccc1CC2N1CCNCC1` (configuration not stated) the Potency was “inactive”. In the case of `O=S(=O)(c1ccc(Br)s1)N1CCN(c2ccccn2)CC1`, the Potency is reported as inconclusive: 5.17 µM [falling, partial curve, poor fit]. With `CC(=O)c1c(C)[nH]c(C(=O)NCc2ccccc2F)c1C` the Potency was inconclusive: 29.1 µM [falling, single point]. In the case of `COc1cc(/C=C2/CC/C(=C/c3ccc(O)c(OC)c3)C2=O)ccc1O`, the Potency is reported as inconclusive: 18.4 µM [falling, single point]. In the case of `CC(C)CCN1C(=O)c2ccc(C(=O)OCn3nnc4ccccc4c3=O)cc2C1=O`, the Potency is reported as inconclusive: 18.4 µM [falling, single point]. With `Cc1ccc2cc(CCNS(=O)(=O)c3ccc(Br)cc3)c(=O)[nH]c2c1C` the Potency was active: 23.1 µM. For `Cc1cc(N2CCN(C)CC2)nc2ccc(NC(=O)Nc3ccccc3Br)cc12`, the Potency was inconclusive: 25.9 µM [falling, single point]. For `Cc1c(C(=O)N(C)Cc2nc3ccccc3c(=O)[nH]2)oc2ccccc12`, the Potency was “inactive”. In the case of `CCOc1ccc(S(=O)(=O)N(CC(=O)Nc2cccnc2)c2ccccc2)cc1`, the Potency is reported as inconclusive: 0.731 µM [activator, full curve, poor fit]. In the case of `O=C(Nc1ccc(OCc2ccccc2)cc1)Nc1cccnc1`, the Potency is reported as inconclusive: 29.1 µM [falling, single point]. In the case of `CC(=O)N1c2ccc(S(=O)(=O)N3CCCC(C(=O)Nc4cccc(F)c4)C3)cc2CC1C` (configuration not stated), the Potency is reported as inconclusive: 29.1 µM [falling, single point]. With `CCOC(=O)c1c(-c2ccccc2)oc2ccc(OCC(O)CN(C)C)cc12` (configuration not stated) the Potency was “inactive”.
